Data from patent EP0284202A1, “Substituted hydantoin compounds” (THE WELLCOME FOUNDATION LIMITED, priority 1987, dated 1988).
Some results were stated once for a whole list of compounds, not compound by compound.

Target: T1, PGD₂ receptor on the human platelet (Homo sapiens, UniProt Q13258)
T1 construct: endogenous in cells; host or cells: washed human platelets
T1 sequence (Q13258 1-359): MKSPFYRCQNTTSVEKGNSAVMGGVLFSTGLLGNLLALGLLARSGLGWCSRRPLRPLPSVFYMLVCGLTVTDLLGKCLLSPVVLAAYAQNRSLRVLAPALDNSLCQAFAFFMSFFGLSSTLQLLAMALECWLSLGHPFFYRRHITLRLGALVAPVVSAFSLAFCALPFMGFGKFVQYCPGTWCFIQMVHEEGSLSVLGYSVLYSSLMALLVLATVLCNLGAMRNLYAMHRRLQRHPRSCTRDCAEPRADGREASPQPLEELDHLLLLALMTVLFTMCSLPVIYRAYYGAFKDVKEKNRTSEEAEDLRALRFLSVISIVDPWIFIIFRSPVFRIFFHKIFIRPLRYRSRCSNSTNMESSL
Assay: Inhibition of ADP-induced aggregation in washed human platelets: antagonism of PGD₂ and compound A, Schild analysis
Assay type: cell-based
Conditions: human washed platelet assay; agonists PGD₂ and compound A
Description: Washed platelet suspensions were prepared according to a modified version of the method of Vargas et al (Prostaglandins (1982) 23, 929). The suspension was then stored at 4°C for 2 hours and, before use, the following additions were made: Ca⁺⁺ʼ […], indomethacin, 5mcg ml⁻¹; and fibrinogen, 400 mcg ml⁻¹. Aggregation responses were measured using 0.5ml aliquots of the suspension maintained at 37°C and stirred with a metal bar at 900 r.p.m. in 300 BD-S Payton dual channel aggregometers and recorded on Gould BS 272 pen recorders.
Inhibition of platelet aggregation by PGD₂ and compound A were studied as follows. The prostaglandin receptor agonists were incubated in the platelet suspension for 6 minutes prior to adding ADP (5 × 10⁻⁵M). The reproducibility of the ADP-induced aggregation response was checked at intervals throughout the experiment. Antagonists were added 2 minutes before the agonist. Responses were expressed as percent inhibitions of the standard ADP-induced aggregation.
Measurement of antagonist affinity (pKB) was by Schild analysis.

| SMILES | behaviour at the PGD₂ receptor on the human platelet |
| --- | --- |
| O=C(O)CCCCCCC1C(=O)N(Cc2ccc(-c3ccccc3)cc2)C(=O)N1NCC(O)C1CCCCC1 (stereo not shown) [Example 4, 3-(4-Phenylbenzyl)-5-(6-carboxyhexyl)-1-(2-hydroxy-2-cyclohexylethylamino) hydantoin] | behave as antagonists |
| O=C(O)CCCCCCC1C(=O)N(CC2CCCCC2)C(=O)N1NCC(O)C1CCCCC1 (stereo not shown) [Example 5, 3-(Cyclohexylmethyl)-5-(6-carboxyhexyl)-1-(2-hydroxy-2-cyclohexylethylamino)hydantoin] | behave as antagonists |
| O=C(O)CCCCCCC1C(=O)N(Cc2ccccc2)C(=O)N1NCC(O)C1CCCCC1 (stereo not shown) [Example 3, 3-Benzyl-5-(6-carboxylhexyl)-1-(2-hydroxy-2-cyclohexylethylamino) hydantoin] | behave as antagonists |
| CCCCCN1C(=O)C(CCCCCCC(=O)O)N(NCC(O)C2CCCCC2)C1=O (stereo not shown) [Example 6, 3-Pentyl-5-(6-carboxyhexyl)-1-(2-hydroxy-2-cyclohexylethylamino) hydantoin] | behave as antagonists |
